Data reported in PMC8068763.
These are yes or no findings as the source states them, for the method shown. For some of these results: In cells and extracts the contact can be indirect. Some entries that bind do so weakly or less than the wild type. Sequences can lack the tags named with a protein.

By UniProt entry, the sequences of proteins in these tests, tags left out.
UniProt Q32KD4: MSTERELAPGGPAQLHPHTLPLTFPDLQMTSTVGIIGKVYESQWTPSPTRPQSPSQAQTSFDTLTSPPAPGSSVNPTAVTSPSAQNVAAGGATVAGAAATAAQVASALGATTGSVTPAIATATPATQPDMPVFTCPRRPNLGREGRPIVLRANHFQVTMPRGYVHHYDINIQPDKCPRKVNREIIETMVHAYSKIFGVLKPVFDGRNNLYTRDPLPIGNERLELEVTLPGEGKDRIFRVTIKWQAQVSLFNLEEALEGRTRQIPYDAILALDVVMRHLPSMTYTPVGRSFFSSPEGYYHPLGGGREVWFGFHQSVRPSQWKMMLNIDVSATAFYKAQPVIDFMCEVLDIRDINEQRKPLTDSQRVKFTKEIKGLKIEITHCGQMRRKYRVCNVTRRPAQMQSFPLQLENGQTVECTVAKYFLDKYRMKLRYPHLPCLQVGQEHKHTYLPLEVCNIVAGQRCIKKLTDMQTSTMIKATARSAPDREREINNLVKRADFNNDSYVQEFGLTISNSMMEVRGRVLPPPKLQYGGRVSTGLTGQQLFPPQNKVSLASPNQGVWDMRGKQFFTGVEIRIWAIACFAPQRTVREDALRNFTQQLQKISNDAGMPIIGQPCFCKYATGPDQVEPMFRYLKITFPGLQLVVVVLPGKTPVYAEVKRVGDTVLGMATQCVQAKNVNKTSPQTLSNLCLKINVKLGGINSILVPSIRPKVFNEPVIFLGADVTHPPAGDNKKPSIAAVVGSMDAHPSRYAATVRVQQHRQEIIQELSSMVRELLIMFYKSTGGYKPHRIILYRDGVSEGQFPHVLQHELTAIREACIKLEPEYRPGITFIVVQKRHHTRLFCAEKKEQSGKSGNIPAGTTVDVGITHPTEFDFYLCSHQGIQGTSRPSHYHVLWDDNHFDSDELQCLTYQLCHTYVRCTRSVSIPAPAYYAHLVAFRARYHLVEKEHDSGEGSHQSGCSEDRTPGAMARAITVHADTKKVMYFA

Tests used:
[1] = biological target: Argonaute 1 (AGO1), full length, yeast two-hybrid fusion (Drosophila) (UniProt Q32KD4); assay: two-hybrid; LexA DBD and GAD (pACT2) fusions in yeast YPH500 with pSH18-34 lexAop-LacZ reporter; X-gal patching on glucose plates 24-48 h, then liquid beta-galactosidase assay
[2] = biological target: T1, Bag of marbles (Bam), full length, yeast two-hybrid fusion (Drosophila) (UniProt P22745); assay: as above
T1 sequence: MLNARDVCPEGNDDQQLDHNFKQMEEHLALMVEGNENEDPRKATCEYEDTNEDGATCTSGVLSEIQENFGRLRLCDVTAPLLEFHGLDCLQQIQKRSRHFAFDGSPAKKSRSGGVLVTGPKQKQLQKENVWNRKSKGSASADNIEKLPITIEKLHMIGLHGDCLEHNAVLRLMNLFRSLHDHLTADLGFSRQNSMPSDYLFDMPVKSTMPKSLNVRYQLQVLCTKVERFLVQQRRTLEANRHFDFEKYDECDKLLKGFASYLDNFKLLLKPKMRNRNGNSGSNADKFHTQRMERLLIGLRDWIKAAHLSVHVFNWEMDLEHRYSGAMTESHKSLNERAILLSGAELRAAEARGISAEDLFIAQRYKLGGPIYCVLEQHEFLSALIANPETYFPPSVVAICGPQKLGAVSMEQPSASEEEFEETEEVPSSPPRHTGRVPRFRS

[3] = biological target: T2, Flag-tagged Bam (Drosophila) (UniProt P22745); assay: co-IP; lysates of transfected S2 cells (72 h), RIPA buffer, anti-FLAG M2 agarose beads, 4 °C overnight, Western blot
T2 sequence: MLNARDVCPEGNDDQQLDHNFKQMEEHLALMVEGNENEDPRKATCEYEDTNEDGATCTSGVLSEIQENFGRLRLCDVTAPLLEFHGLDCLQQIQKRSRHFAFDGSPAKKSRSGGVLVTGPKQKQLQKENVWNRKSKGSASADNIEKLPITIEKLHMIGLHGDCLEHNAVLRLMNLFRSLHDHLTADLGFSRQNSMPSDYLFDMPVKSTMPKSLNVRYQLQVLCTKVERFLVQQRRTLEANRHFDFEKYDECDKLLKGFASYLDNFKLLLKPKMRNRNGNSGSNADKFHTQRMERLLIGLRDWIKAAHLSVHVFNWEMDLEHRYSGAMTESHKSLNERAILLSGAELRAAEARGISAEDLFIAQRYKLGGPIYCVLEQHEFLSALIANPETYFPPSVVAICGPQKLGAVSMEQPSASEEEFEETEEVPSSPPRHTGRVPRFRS

B1: Brain tumor (Brat), full length, yeast two-hybrid fusion (protein, UniProt Q8MQJ9 1-1037)
chain: MASSPTPSLDSMRGGANSIESYEHAGYLSDSPLTLSGSSPPASDSAICSDEYTGGSSVKSRSEVTVINGHHPISASVSSSSSASSSSCSSSSSSSSSSSSSSSSTSGLSGCGSTSSSVISANNVASSNGPGVIGSNLQSSNNGGNSGISSLVVGAGKGSNSSSNSSSSNTSANGSPPRCTACKSKCSDAVAKCFECQSYLCANCVTAHEFMHCFNGHNVCLIKGFEASTTGTPLSVGSPSNNPASNEFKYASSLTMMLQQQQQLDSQQQQQQQQLLPAQPMSQLSKIVLAAAAQANSQEQQREDSIYGSLHPQQQQQQQQQQQRQLFCPRHKQELLKFSCRTCCILVCKECIVLEHSTGLHELENVQSPGMTTSTGSTANESALQTLLADMRGKIGEIVGIAGNSDQNLTKVKLQYQKAHNELNETHQFFASMLDERKTELLKELETLYTAKVNSNNSWQQRSRDLIDKGLATCEAVERSPAPPSSLLTEALLLRKSLEQQLQTGIQEMQLPFEIEFMSNYQSIQAGVRNTFGYIRANSSDGGPTGMSLTSNGHGKQPPIARPTQSASNSSASSAGSGHHGHHQQSHHHGHHNHHQTAHHQQLQAQSSLHGLGLGLSGASLLDSSSSAGGAVGAFSNGGLLLGGRDRNALAVEQHFGELMPKRGGGGYTGSNGSATSAVAHYNPYEKWSNGGSDNLFSSVTSGVSGSSAVADAFASLSAVGGSVVSGAGAGGSTVSSESLLDLTNKLLSATIYPPKSQIKRQKMIYHCKFGEFGVMEGQFTEPSGVAVNAQNDIIVADTNNHRIQIFDKEGRFKFQFGECGKRDSQLLYPNRVAVVRNSGDIIVTERSPTHQIQIYNQYGQFVRKFGATILQHPRGVTVDNKGRIIVVECKVMRVIIFDQNGNVLHKFGCSKHLEFPNGVVVNDKQEIFISDNRAHCVKVFNYEGQYLRQIGGEGITNYPIGVGINSNGEILIADNHNNFNLTIFTQDGQLISALESKVKHAQCFDVALMDDGSVVLASKDYRLYIYRYVQLAPVGM
- binding [1]: binds
- binding [2]: binds

B2: Brat in S2 cells (protein, UniProt Q8MQJ9 1-1037)
chain: MASSPTPSLDSMRGGANSIESYEHAGYLSDSPLTLSGSSPPASDSAICSDEYTGGSSVKSRSEVTVINGHHPISASVSSSSSASSSSCSSSSSSSSSSSSSSSSTSGLSGCGSTSSSVISANNVASSNGPGVIGSNLQSSNNGGNSGISSLVVGAGKGSNSSSNSSSSNTSANGSPPRCTACKSKCSDAVAKCFECQSYLCANCVTAHEFMHCFNGHNVCLIKGFEASTTGTPLSVGSPSNNPASNEFKYASSLTMMLQQQQQLDSQQQQQQQQLLPAQPMSQLSKIVLAAAAQANSQEQQREDSIYGSLHPQQQQQQQQQQQRQLFCPRHKQELLKFSCRTCCILVCKECIVLEHSTGLHELENVQSPGMTTSTGSTANESALQTLLADMRGKIGEIVGIAGNSDQNLTKVKLQYQKAHNELNETHQFFASMLDERKTELLKELETLYTAKVNSNNSWQQRSRDLIDKGLATCEAVERSPAPPSSLLTEALLLRKSLEQQLQTGIQEMQLPFEIEFMSNYQSIQAGVRNTFGYIRANSSDGGPTGMSLTSNGHGKQPPIARPTQSASNSSASSAGSGHHGHHQQSHHHGHHNHHQTAHHQQLQAQSSLHGLGLGLSGASLLDSSSSAGGAVGAFSNGGLLLGGRDRNALAVEQHFGELMPKRGGGGYTGSNGSATSAVAHYNPYEKWSNGGSDNLFSSVTSGVSGSSAVADAFASLSAVGGSVVSGAGAGGSTVSSESLLDLTNKLLSATIYPPKSQIKRQKMIYHCKFGEFGVMEGQFTEPSGVAVNAQNDIIVADTNNHRIQIFDKEGRFKFQFGECGKRDSQLLYPNRVAVVRNSGDIIVTERSPTHQIQIYNQYGQFVRKFGATILQHPRGVTVDNKGRIIVVECKVMRVIIFDQNGNVLHKFGCSKHLEFPNGVVVNDKQEIFISDNRAHCVKVFNYEGQYLRQIGGEGITNYPIGVGINSNGEILIADNHNNFNLTIFTQDGQLISALESKVKHAQCFDVALMDDGSVVLASKDYRLYIYRYVQLAPVGM
- binding [3]: binds

B3: Bag of marbles (Bam), full length, yeast two-hybrid fusion (protein, UniProt P22745 1-442)
chain: MLNARDVCPEGNDDQQLDHNFKQMEEHLALMVEGNENEDPRKATCEYEDTNEDGATCTSGVLSEIQENFGRLRLCDVTAPLLEFHGLDCLQQIQKRSRHFAFDGSPAKKSRSGGVLVTGPKQKQLQKENVWNRKSKGSASADNIEKLPITIEKLHMIGLHGDCLEHNAVLRLMNLFRSLHDHLTADLGFSRQNSMPSDYLFDMPVKSTMPKSLNVRYQLQVLCTKVERFLVQQRRTLEANRHFDFEKYDECDKLLKGFASYLDNFKLLLKPKMRNRNGNSGSNADKFHTQRMERLLIGLRDWIKAAHLSVHVFNWEMDLEHRYSGAMTESHKSLNERAILLSGAELRAAEARGISAEDLFIAQRYKLGGPIYCVLEQHEFLSALIANPETYFPPSVVAICGPQKLGAVSMEQPSASEEEFEETEEVPSSPPRHTGRVPRFRS
- binding [1]: no binding
